Values quoted from earlier work in patent US20240041764A1, “Sustained-Release Oral Fosamprenavir Formulation for Treatment of Reflux” (The Medical College of Wisconsin, Inc., priority 2022, published 2024).
For at least one compound, name, drawing or mass did not settle the structure.

Tested on: pepsin
Conditions: cited from earlier work

For `COc1cc(/C=C/C(=O)CC(=O)/C=C/c2ccc(O)c(OC)c2)ccc1O` [curcumin], the “effect on pepsin-mediated damage and inflammation” value is listed as “abrogate this damage and inflammation”.
